# Measurements: article PMC12040169 (PLOS Biology, 2025)
# The list shows a part of the results. Peptide text beside a SMILES is read from it. * marks the point of attachment. Bz = O=C(c1ccccc1)*
# Test system: T1, CTL2-GFP (C. trachomatis L2/434/Bu, GFP-expressing)
# T1 construct: L2/434/Bu, GFP-expressing
# Set-up: species or system HeLa; Intracellular C. trachomatis growth in HeLa cells, bulk GFP fluorescence relative to DMSO
# Settings: bulk GFP, single well; 28.5 h, 10 µM; inhibitor
row,Structure (SMILES),% of control remaining
1,O=C(CCCOc1ccccc1)Nc1ccc(N2CCNCC2)nc1 [CBK028270T],108.857%
2,Cn1cnnc1SCc1nc(N)nc(Nc2ccccc2)n1 [CBK018022],111.678%
3,COc1ccc(C2=NNC(=O)c3cc4sccc4n3C2)cc1 [CBK284205],91.7356%
4,Cc1sc2ncn(CC(=O)NC3CCOc4ccccc43)c(=O)c2c1C (stereo not drawn) [CBK304562],110.26%
5,C[Si]1(C)O[Si](C)(C)O[Si](C)(CC[Si](C)(C)c2ccccc2)O[Si](C)(C)O1 [CBK260998],100%
6,CN(c1cccc(C#N)c1)C1CCN(c2nccn(C)c2=O)C1 (stereo not drawn) [CBK304718],143.808%
7,OC(COCc1ccc2c(c1)OCO2)CN1CCN(Cc2ccccc2)CC1 (stereo not drawn) [CBK278249C],121.72%
8,COc1ccc(Nc2nc(-c3ccc(Cl)cc3)cn3ccnc23)cn1 [CBK066254],84.163%
9,CCOC(=O)C1CCN(c2cccc(F)c2C#N)CC1 [CBK304558],124.096%
10,c1csc(CNCCCN2CCOCC2)c1 [CBK278305C],147.445%
11,O=C(NC1CC2CCC(C1)N2Cc1ccccc1)c1ccc(Cl)cc1 (stereo not drawn) [CBK120192],140.553%
12,Cc1ccc(-c2[nH]ncc2C(=O)c2ccccc2C)c(O)c1 [CBK287929],149.221%
13,CC(C)OC(=O)COc1ccc2c(=O)c(Oc3ccccc3Br)coc2c1 [CBK264226],110.403%
14,CC(C)c1ccc(/C=C/C(=O)NCc2cccs2)cc1 [CBK149587],110.942%
15,COc1ccc(-c2n[nH]c(=S)n2CCC(=O)NCc2ccc(CN3CCCCC3)cc2)cc1 [CBK297918],134.166%
16,OCCN(CCO)Cc1c(Cl)cccc1Cl [CBK261887],124.914%
17,Cc1ccc(OCC(=O)Nc2ncc(C(F)(F)F)cc2Cl)c(Br)c1 [CBK266426],173.276%
18,COc1ccc2sc(C)[n+](CCC(=O)O)c2c1 [CBK260899B],115.29%
19,CCc1cc(=O)[nH]c(-c2ccc(N3CCOCC3C)nc2)n1 (stereo not drawn) [CBK305532],155.596%
20,Clc1ccccc1-c1nccnc1NCCc1ccncc1 [CBK038055],241.308%
21,Cc1nn(C)c(=O)c2c(C)noc12 [CBK001462],115.803%

# In the list so far, these have bromine:
row,Structure (SMILES),% of control remaining
13,CC(C)OC(=O)COc1ccc2c(=O)c(Oc3ccccc3Br)coc2c1 [CBK264226],110.403%
17,Cc1ccc(OCC(=O)Nc2ncc(C(F)(F)F)cc2Cl)c(Br)c1 [CBK266426],173.276%

# (list continues)

row,Structure (SMILES),% of control remaining
1,Cn1c(CCNC(=O)NC2CCCCC2)nc2cc([N+](=O)[O-])ccc21 [CBK268453],132.241%
2,Cc1ccc(Cl)cc1N(Cc1ccc(C(=O)N2CCC(C)CC2)cc1)S(=O)(=O)c1ccccc1 [CBK033646],97.0062%
3,CC(C)(C)C(O)CNc1ncnc2ccc(S(C)(=O)=O)cc12 (stereo not drawn) [CBK306494],103.648%
4,Cn1c(Cc2cccc3ccccc23)nnc1SCC(=O)Nc1ccccc1F [CBK265856],92.1366%
5,CCOP(=O)(O)c1c([N+](=O)[O-])cc(C(F)(F)F)cc1[N+](=O)[O-] [CBK261106G],87.4424%
6,COc1ccc(CCNS(=O)(=O)c2cccc([N+](=O)[O-])c2)cc1OC [CBK263618],115.253%
7,CCCc1cnc(N2CCN(S(=O)(=O)c3ccc(NC(C)=O)cc3Cl)CC2)nc1 [CBK086208],93.7817%
8,O=C(Nc1cccc(-c2cn3cccnc3n2)c1)c1cccc([N+](=O)[O-])c1 [CBK268963],140.603%
9,CC1(C)CCCCC1CC(=O)NS(=O)(=O)c1cccc(-c2nnco2)c1 (stereo not drawn) [CBK306477],117.531%
10,CSc1ccccc1CNC(=O)c1cc(Br)cnc1N(C)C(C)=O [CBK076478],115.697%
11,N#Cc1ccc(-n2nc(-c3ccccc3)c3ccccc3c2=O)c([N+](=O)[O-])c1 [CBK132567],125.599%
12,Cc1cc(N2C[C@H](CO)OC2=O)ccc1C#N [CBK017978],98.689%
13,O=C(O)CCC(=O)Nc1cccc(C(=O)Nc2ccc(Br)cc2)c1 [CBK269129],144.097%
14,C=CCN(Cc1nc(-c2ccccc2)no1)C(=O)Nc1ccc(C)cc1 [CBK269859],83.5956%
15,CC(C)CSc1nccnc1N1CCCC1 [CBK103683],98.844%
16,COc1ccc(C2(CN3CCC(NC(=O)C(C)C)CC3)CC2)cc1 [CBK285374],111.456%
17,CC(NC(=O)N1CCC2(CC1)NC(=O)Cc1ccccc12)c1cccc2ccccc12 (stereo not drawn) [CBK047280],100.976%
18,S=C(Nc1ccc(Nc2ccccc2)cc1)N1CCN(C/C=C/c2ccccc2)CC1 [CBK266149],112.414%
19,O=C(CCc1nc2ccccc2nc1O)OCc1cccc([N+](=O)[O-])c1 [CBK266804],142.832%
20,COCc1cc(CN2CCN(C)CC2)c(O)c2ncccc12 [CBK263546],95.9437%
21,Cc1cc(C)c(S(=O)(=O)NC(CC(=O)O)c2ccccc2)cc1C (stereo not drawn) [CBK267081],168.655%

row,Structure (SMILES),% of control remaining
1,COc1ccccc1-c1cc2c(=O)n(C)c(-c3ccc(CNC(C)C)cc3)cc2o1 [CBK051699C],83.3635%
2,Cc1ccc(-n2c(SCC(=O)NCc3ccccc3)nnc2-c2ccc(Cl)cc2)cc1C [CBK265909],182.839%
3,O=C1COc2ccccc2C/C=C/CC2(CCCN(C(=O)CN3CSCC3=O)C2)CN1 (stereo not drawn) [CBK292035],115.432%
4,O=C1CN(C(=O)NCCOc2ccccc2)CCN1 [CBK155871],81.9332%
5,O=C(NC1CC1)c1cnoc1-c1ccccc1 [CBK154935],114.41%
6,O=C(CCn1ccnc1)NCC1Cc2ccccc2O1 (stereo not drawn) [CBK283062],137.721%
7,CS(=O)(=O)c1ccc(CNC(=O)c2cc(-c3ccc(C(=O)N4CCOCC4)cc3)cnc2N)cc1 [CBK158599],122.203%
8,CCn1ncc(S(=O)(=O)N2CCC(c3cccc(Cc4ccccc4C)n3)CC2)c1C [CBK286116],99.0163%
9,O=C(O)CCc1ccc(-c2ccc(F)cc2)n1-c1cc(Cl)ccc1Cl [CBK264754],120.344%
10,COc1ccc(-c2cc(C(=O)NCC(O)CO)cnc2-c2ccc(Cl)cc2)cn1 (stereo not drawn) [CBK036645],226.776%
11,CS(=O)(=O)N1CCN(c2ccccc2NC(=O)Cc2ccc(Cl)cc2)CC1 [CBK267605],130.507%
12,C[C@H]1CC[C@H](C(=O)N2CCC[C@H]2C(=O)O)CC1 [CBK028320],113.736%
13,Cc1cccc(NC(=O)C2CC(=O)NC(Nc3nc4ccccc4s3)=N2)c1 (stereo not drawn) [CBK264362],114.282%
14,N=C(N)NCCCc1c[nH]c2ccccc12 [CBK012139G],85.8003%
15,FC(F)(F)c1ccnc(Sc2nc[nH]n2)n1 [CBK093806],115.981%
16,O=C(NC(Cc1ccccc1)C(=O)N1CCCC1C(=O)O)c1ccccc1 (stereo not drawn) [CBK264058] (Bz-Phe-Pro-OH; configuration not given here),128.548%
17,Cc1cnc2c(N3CCCC3)nc(Cl)cn12 [CBK092250],110.498%
18,Cc1cccc(C)c1OCC(O)CNCCc1ccccc1 (stereo not drawn) [CBK003072],106.811%
19,CCNc1nc2ccccn2c(=O)c1C=C1SC(=S)N(CCCC(=O)O)C1=O [CBK296757],199.303%
20,O=S1(=O)CCN(Cc2cnn(-c3cncnc3)n2)CC1 [CBK112878],162.846%
21,C1=C(CCNCCc2ccccc2)c2ccccc2C12CCCC2 [CBK024723],16.9991%

row,Structure (SMILES),% of control remaining
1,C=CCn1c(COc2cccc(Cl)c2)nnc1SCC(=O)O [CBK269389],129.773%
2,Clc1ccc(Nc2cncc(-c3cccs3)n2)cc1 [CBK065805],131.359%
3,CCc1nc(-c2ccc(N(C)C)nc2)nn1C [CBK307381],70.0992%
4,CCOc1ccc(C(=O)Nc2ccc(-c3nc4ccccc4s3)cc2C)cc1[N+](=O)[O-] [CBK269005],140.655%
5,O=C(C1CCCO1)N1CCC(c2onc3c2CCCCC3)CC1 (stereo not drawn) [CBK284487],123.176%
6,CC(C)Nc1nccnc1OC1CCNC1 (stereo not drawn) [CBK115279],100%
7,O=c1cc(CN2CCCc3ccccc32)[nH]c(=O)[nH]1 [CBK138331],92.5365%
8,CN1[C@@H](CCC(=O)Nc2ccccc2)CNC(=O)[C@@H]2[C@H]1CCN2C1CCOCC1 [CBK289029],128.99%
9,CN(C)CC1CN(C(=O)c2ccccc2F)Cc2ccccc2O1 (stereo not drawn) [CBK285188],119.666%
10,CCCC(=O)Nc1ccc(-c2csc(CCN3CCOC3=O)n2)cc1 [CBK305687],105.587%
11,O=C(NCCF)c1cn2cc(-c3cccs3)n(CC3CC3)c(=O)c2n1 [CBK307367],126.427%
12,Cc1ccc(-c2ccc(N3CCN(C)CC3)nc2)cc1C [CBK036937],208.702%
13,Cc1nc2ccc(NC(=O)c3cccc(C(F)(F)F)c3)cc2nc1C [CBK270221],136.207%
14,CCn1cncc1CN(CCCn1ccnc1)Cc1ccc(C)s1 [CBK283104],113.233%
15,O=C1CC(c2cccnc2)=NN1c1ccc(Cl)cc1Cl [CBK067764],103.8%
16,COCCNc1nc(-c2ccc3ccccc3c2)cn2ccnc12 [CBK066138],161.933%
17,Cn1cc(CN2CCNC(=O)C2c2ccccc2C(F)(F)F)cn1 (stereo not drawn) [CBK306407],90.8171%
18,CC(=O)N1CCC(C(=O)NC(c2ccc3c(c2)OCO3)c2cccs2)CC1 (stereo not drawn) [CBK059881],149.445%

# Part of the list above in order of number of heavy atoms, rising:
row,Structure (SMILES),% of control remaining
21,Cc1nn(C)c(=O)c2c(C)noc12 [CBK001462],115.803%
20,Clc1ccccc1-c1nccnc1NCCc1ccncc1 [CBK038055],241.308%
11,O=C(NCCF)c1cn2cc(-c3cccs3)n(CC3CC3)c(=O)c2n1 [CBK307367],126.427%
